From the supplement of paper PMC3334620
Over roughly 33,000 sequences, “E-score (-0.5 to 0.5)” has its median near -8e-05; the highest 2% begin near 0.23. Some of the results follow.

What follows are sequences tested against T1, Nrg2 (UniProt P38082) (assay: PBM E-score (8-mer binding enrichment) (E-score (-0.5 to 0.5)); higher = stronger / more preferred TF binding). Details: protein concentration: 100 nM; construct: GST-full length.
T1 sequence: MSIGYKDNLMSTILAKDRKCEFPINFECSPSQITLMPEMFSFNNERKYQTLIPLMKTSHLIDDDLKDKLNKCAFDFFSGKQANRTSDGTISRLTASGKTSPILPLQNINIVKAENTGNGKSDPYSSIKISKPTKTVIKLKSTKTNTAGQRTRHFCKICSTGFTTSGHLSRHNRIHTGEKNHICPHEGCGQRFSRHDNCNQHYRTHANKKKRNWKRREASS
Procedure, shortened: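 PURExpress in vitro transcription/translation supplied GST-tagged yeast transcription factors, either full-length or DNA-binding domain. Applied at about 100-200 nM to universal all-10-mer Agilent arrays double-stranded by primer extension, the bound protein was detected with fluorescent anti-GST. E-scores, modified Wilcoxon-Mann-Whitney statistics, were given by the Universal PBM Analysis Suite to ungapped eight-base words pooled with their reverse complements after masliner normalisation.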

In order of falling “PBM E-score” value:
1. GTTCGAAC  0.233
2. AAGAACAT  0.205
3. AAGGGGAT  0.205
4. ATCTCAGG  0.193
5. AGGGTGGG  0.192
6. TCATGCAA  0.192
7. ATATTCGC  0.191
8. CCTACAAC  0.189
9. ATACCCGC  0.182
10. ATCGAAAG  0.176
11. AATAGTCG  0.175
12. AAGACAGA  0.172
13. ATTTGTAG  0.156
14. CTGAATAC  0.146
15. AAACATTT  0.134
16. ACCAAAGC  0.132
17. AAGGTATT  0.125
18. AGCTCATA  0.12
19. TATATAGA  0.118
20. CCACACTA  0.115
21. AGTATGAG  0.111
22. GTGATCAA  0.103
23. AATAACAG  0.102
24. ACCTCGCT  0.1
25. ATGATTTG  0.0998
26. GAAATCGC  0.0997
27. CAATTCGG  0.0993
28. CAAACTCG  0.0969
29. GGTGCACA  0.0914
30. ACCGCACT  0.0895
31. AACTGTTC  0.0794
32. CCTATTTA  0.0786
33. ACACAACT  0.0781
34. GTGGACTA  0.0773
35. CTTAAGGA  0.0706
36. CCTATGTC  0.0697
37. GATACCCC  0.0656
38. ACTCATCT  0.0632
39. CAAATAAA  0.053
40. CGGTAACA  0.0498
41. GTCCGAGA  0.0489
42. CAAAGTTG  0.0466
43. AGGAACCC  0.0453
44. AGCCCCAA  0.0372
45. CTGTAGGA  0.0349
46. CTAATGAG  0.028
47. ACGCGCAG  0.025
48. CGTGACCA  0.0193
49. CACATCGA  0.0179
50. CAGAAAAG  0.0119
51. CCGCACGA  0.0117
52. AAAACGTT  0.00632
53. ATGTTACC  0.00528
54. ATTCGCAC  0.00138
55. AGCCGGCA  9e-05
56. AGGTGCGG  -0.00509
57. TTCGTAAA  -0.00824
58. AGCATTGA  -0.0178
59. CAATAGTC  -0.0181
60. GCCTAGCC  -0.0193
61. GCCACACC  -0.0199
62. AAGAGGCG  -0.0266
63. ACGCGTGC  -0.0292
64. ACGCGCCT  -0.0319
65. CAGATAGG  -0.0361
66. CATTGGCA  -0.0365
67. AGTGCGCG  -0.0388
68. AGCGATAC  -0.0406
69. AGGCCGCG  -0.0431
70. CTACGGGA  -0.0455
71. ATCACGTA  -0.0509
72. AACTCACT  -0.0514
73. TCCCCGCA  -0.0603
74. AGCCAACA  -0.0605
75. GCGAGCCC  -0.0609
76. AAGTCGAT  -0.0685
77. GTGCGGGA  -0.0809
78. CCCATGAC  -0.0865
79. AAGCACTT  -0.102
80. CGTTAGAC  -0.103
81. ATGCTCTC  -0.118
82. ACGTGGCG  -0.122
83. CGGCTAGC  -0.127
84. GGCCAAAC  -0.129
85. AATCCAGC  -0.13
86. GCCCGTGA  -0.134
87. AGAGCGAT  -0.144
88. AGTCGAAG  -0.145
89. CCTCAAGC  -0.15
90. CAACAGGA  -0.152
91. GGCAGGCA  -0.153
92. CTGGAGAA  -0.161
93. ATAGCACG  -0.163
94. AGTCTTGG  -0.172
95. CATGTTAG  -0.178
96. CCTAGATA  -0.182
97. ACCGGATA  -0.184
98. AGAGCCAC  -0.195
99. GCACGTCA  -0.196
100. AAATCTCC  -0.204
101. AGGGAGCA  -0.261
102. AAGCGGTG  -0.316
103. CCCCCTAG  -0.358
